Measured values published in publication doi:10.1101/2023.07.24.550360.
No constants are given. Whether binding was seen depends on the method and setting. Binding seen in cells or lysates may run through a third protein. Here binding means that the protein was enriched with, or labelled near, the bait; the list need not be complete.

Biological target: TbCul-A (T. brucei brucei (endogenous in procyclic Lister 427 cells))
Test: affinity purification with mass spectrometry

binding: binds
B1: ornithine decarboxylase (TbODC) (enzyme, UniProt P07805 1-423)
chain: MDIVVNDDLSCRFLEGFNTRDALCKKISMNTCDEGDPFFVADLGDIVRKHETWKKCLPRVTPFYAVKCNDDWRVLGTLAALGTGFDCASNTEIQRVRGIGVPPEKIIYANPCKQISHIRYARDSGVDVMTFDCVDELEKVAKTHPKAKMVLRISTDDSLARCRLSVKFGAKVEDCRFILEQAKKLNIDVTGVSFHVGSGSTDASTFAQAISDSRFVFDMGTELGFNMHILDIGGGFPGTRDAPLKFEEIAGVINNALEKHFPPDLKLTIVAEPGRYYVASAFTLAVNVIAKKVTPGVQTDVGAHAESNAQSFMYYVNDGVYGSFNCILYDHAVVRPLPQREPIPNEKLYPSSVWGPTCDGLDQIVERYYLPEMQVGEWLLFEDMGAYTVVGTSSFNGFQSPTIYYVVSGLPDHVVRELKSQKS
